According to paper doi:10.1101/2020.06.23.167247:
No constants are given. Whether binding was seen depends on the method and setting. Some entries that bind do so weakly or less than the wild type. Sequences can lack the tags named with a protein.

B1: GDP-D-mannose epimerase (GME), yeast two-hybrid fusions (enzyme, UniProt Q93VR3 1-377)
chain: MGTTNGTDYGAYTYKELEREQYWPSENLKISITGAGGFIASHIARRLKHEGHYVIASDWKKNEHMTEDMFCDEFHLVDLRVMENCLKVTEGVDHVFNLAADMGGMGFIQSNHSVIMYNNTMISFNMIEAARINGIKRFFYASSACIYPEFKQLETTNVSLKESDAWPAEPQDAYGLEKLATEELCKHYNKDFGIECRIGRFHNIYGPFGTWKGGREKAPAAFCRKAQTSTDRFEMWGDGLQTRSFTFIDECVEGVLRLTKSDFREPVNIGSDEMVSMNEMAEMVLSFEEKKLPIHHIPGPEGVRGRNSDNNLIKEKLGWAPNMRLKEGLRITYFWIKEQIEKEKAKGSDVSLYGSSKVVGTQAPVQLGSLRAADGKE
B2: L-galactose 1-phosphate phosphatase (VTC4), yeast two-hybrid fusions (enzyme, UniProt Q9M8S8 1-271)
chain: MADNDSLDQFLAAAIDAAKKAGQIIRKGFYETKHVEHKGQVDLVTETDKGCEELVFNHLKQLFPNHKFIGEETTAAFGVTELTDEPTWIVDPLDGTTNFVHGFPFVCVSIGLTIGKVPVVGVVYNPIMEELFTGVQGKGAFLNGKRIKVSAQSELLTALLVTEAGTKRDKATLDDTTNRINSLLTKVRSLRMSGSCALDLCGVACGRVDIFYELGFGGPWDIAAGIVIVKEAGGLIFDPSGKDLDITSQRIAASNASLKELFAEALRLTGA
B3: GDP-L-galactose phosphorylase (VTC2), yeast two-hybrid fusions (enzyme, UniProt Q8RWE8 1-442)
chain: MLKIKRVPTVVSNYQKDDGAEDPVGCGRNCLGACCLNGARLPLYACKNLVKSGEKLVISHEAIEPPVAFLESLVLGEWEDRFQRGLFRYDVTACETKVIPGKYGFVAQLNEGRHLKKRPTEFRVDKVLQSFDGSKFNFTKVGQEELLFQFEAGEDAQVQFFPCMPIDPENSPSVVAINVSPIEYGHVLLIPRVLDCLPQRIDHKSLLLAVHMAAEAANPYFRLGYNSLGAFATINHLHFQAYYLAMPFPLEKAPTKKITTTVSGVKISELLSYPVRSLLFEGGSSMQELSDTVSDCCVCLQNNNIPFNILISDCGRQIFLMPQCYAEKQALGEVSPEVLETQVNPAVWEISGHMVLKRKEDYEGASEDNAWRLLAEASLSEERFKEVTALAFEAIGCSNQEEDLEGTIVHQQNSSGNVNQKSNRTHGGPITNGTAAECLVLQ
B4: L-galactose dehydrogenase (L-GalDH), yeast two-hybrid fusions (enzyme, UniProt O81884 1-319)
chain: MTKIELRALGNTGLKVSAVGFGASPLGSVFGPVAEDDAVATVREAFRLGINFFDTSPYYGGTLSEKMLGKGLKALQVPRSDYIVATKCGRYKEGFDFSAERVRKSIDESLERLQLDYVDILHCHDIEFGSLDQIVSETIPALQKLKQEGKTRFIGITGLPLDIFTYVLDRVPPGTVDVILSYCHYGVNDSTLLDLLPYLKSKGVGVISASPLAMGLLTEQGPPEWHPASPELKSASKAAVAHCKSKGKKITKLALQYSLANKEISSVLVGMSSVSQVEENVAAVTELESLGMDQETLSEVEAILEPVKNLTWPSGIHQN

Experiments:
Experiment in all cases: two-hybrid
[1] = biological target: T1, L-galactose dehydrogenase (L-GalDH), yeast two-hybrid fusions (Arabidopsis thaliana) (UniProt O81884)
T1 sequence: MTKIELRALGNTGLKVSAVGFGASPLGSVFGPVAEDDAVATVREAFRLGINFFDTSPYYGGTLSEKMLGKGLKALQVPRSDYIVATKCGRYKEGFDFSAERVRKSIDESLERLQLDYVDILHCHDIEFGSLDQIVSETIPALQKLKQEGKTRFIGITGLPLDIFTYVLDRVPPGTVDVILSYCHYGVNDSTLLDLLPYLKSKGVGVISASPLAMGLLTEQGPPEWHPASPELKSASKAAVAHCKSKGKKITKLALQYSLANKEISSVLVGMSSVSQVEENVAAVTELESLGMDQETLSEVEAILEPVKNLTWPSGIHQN

[2] = biological target: GDP-D-mannose epimerase (GME), yeast two-hybrid fusions (Arabidopsis thaliana) (UniProt Q93VR3)
[3] = biological target: T2, L-galactono-1,4-lactone dehydrogenase (L-GalLDH), yeast two-hybrid fusions (Arabidopsis thaliana) (UniProt Q9SU56)
T2 sequence: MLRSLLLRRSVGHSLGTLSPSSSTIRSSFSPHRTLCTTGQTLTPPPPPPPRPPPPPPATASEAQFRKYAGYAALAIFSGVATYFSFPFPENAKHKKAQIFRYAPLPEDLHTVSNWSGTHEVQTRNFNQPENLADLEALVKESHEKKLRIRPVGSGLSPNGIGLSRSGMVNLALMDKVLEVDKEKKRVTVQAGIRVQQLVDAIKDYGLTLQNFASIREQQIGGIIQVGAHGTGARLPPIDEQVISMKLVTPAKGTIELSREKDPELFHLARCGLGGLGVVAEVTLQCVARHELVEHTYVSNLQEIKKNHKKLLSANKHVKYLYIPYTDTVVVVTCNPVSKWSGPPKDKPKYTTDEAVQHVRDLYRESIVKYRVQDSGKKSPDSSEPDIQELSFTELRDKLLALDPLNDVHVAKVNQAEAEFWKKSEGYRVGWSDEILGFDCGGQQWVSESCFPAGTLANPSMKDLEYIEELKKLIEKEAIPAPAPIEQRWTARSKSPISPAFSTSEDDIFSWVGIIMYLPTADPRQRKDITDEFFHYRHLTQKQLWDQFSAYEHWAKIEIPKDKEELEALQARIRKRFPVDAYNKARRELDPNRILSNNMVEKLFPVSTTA

[4] = biological target: T3, L-galactose 1-phosphate phosphatase (VTC4), yeast two-hybrid fusions (Arabidopsis thaliana) (UniProt Q9M8S8)
T3 sequence: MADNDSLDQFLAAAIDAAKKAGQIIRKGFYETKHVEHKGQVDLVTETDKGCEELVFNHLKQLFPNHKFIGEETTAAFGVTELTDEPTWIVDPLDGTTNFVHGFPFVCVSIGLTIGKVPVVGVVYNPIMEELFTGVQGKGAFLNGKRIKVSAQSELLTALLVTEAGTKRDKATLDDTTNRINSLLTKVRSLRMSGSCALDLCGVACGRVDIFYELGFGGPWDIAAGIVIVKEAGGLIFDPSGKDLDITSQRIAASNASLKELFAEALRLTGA

Row | Binder | binding [1] | binding [2] | binding [3] | binding [4]
1 | B1 | no binding | binds | no binding | no binding
2 | B2 | – | – | no binding | binds
3 | B3 | no binding | – | no binding | –
4 | B4 | – | – | no binding | –
